{"source": "PubChem BioAssay AID652243 (Drosophila RNAi Screening Center, 2013)", "assay": "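Fly genes required for human androgen receptor driven transcription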 (primary screen)", "cells": "Drosophila S2R+ cells", "reagents": "long dsRNA against Drosophila genes", "time to read-out": "72 h (48 h, then 24 h hormone)", "conditions": "synthetic androgen R1881 at 10 nM for 24 h", "read-out": "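Per-well raw luminescence of the androgen-driven firefly reporter and of the Renilla control, two replicates each, without normalisation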", "reading the numbers": "firefly reporter light: higher = more light from androgen-responsive reporter; Renilla control light: higher = more constitutive control signal (cell number, transfection)", "call rule": "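Hit when the log firefly-to-Renilla ratio dropped or increased by a fixed fold versus the mean of GFP or LacZ controls across duplicate plates; lowering cut given as 1.5 and as 3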", "meaning of the calls": "active = hit: reporter lowered or raised; inactive = no hit", "note": "The deposit covers about 24,000 reagents; this is a random part of those with a known target gene and a result. In the full data, 246 (1%) got an active call. 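Plates not normalised; calls are printed but the firefly/Renilla ratio behind them is not deposited; fold cut for lowering reported inconsistently.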 Raw values are not corrected between plates. Entries without a mark were called inactive. Not given: the amount of reagent."}
{"gene": "Dif (Dorsal-related immunity factor)", "dsRNA": "DRSC03316", "firefly reporter light, replicate 1": 2.14e5, "firefly reporter light, replicate 2": 3.39e5, "Renilla control light, replicate 1": 2.13e6, "Renilla control light, replicate 2": 2.65e6}
{"gene": "Ca-alpha1D (Ca[2+]-channel protein alpha[[1]] subunit D)", "dsRNA": "DRSC03284", "firefly reporter light, replicate 1": 9.58e5, "firefly reporter light, replicate 2": 9.82e5, "Renilla control light, replicate 1": 1.81e6, "Renilla control light, replicate 2": 1.93e6}
{"gene": "CG9630", "dsRNA": "DRSC16527", "firefly reporter light, replicate 1": 68020, "firefly reporter light, replicate 2": 34341, "Renilla control light, replicate 1": 6.27e5, "Renilla control light, replicate 2": 3.13e5}
{"gene": "CG10674", "dsRNA": "DRSC09775", "firefly reporter light, replicate 1": 1.86e5, "firefly reporter light, replicate 2": 1.96e5, "Renilla control light, replicate 1": 2.49e6, "Renilla control light, replicate 2": 3.15e6}
{"gene": "CG31882", "dsRNA": "DRSC01084", "firefly reporter light, replicate 1": 1.30e5, "firefly reporter light, replicate 2": 1.31e5, "Renilla control light, replicate 1": 5.16e5, "Renilla control light, replicate 2": 4.39e5}
{"gene": "mldr (mulder)", "dsRNA": "DRSC18100", "firefly reporter light, replicate 1": 3.26e5, "firefly reporter light, replicate 2": 3.68e5, "Renilla control light, replicate 1": 2.06e6, "Renilla control light, replicate 2": 2.01e6}
{"gene": "mldr (mulder)", "dsRNA": "DRSC27990", "firefly reporter light, replicate 1": 6.59e5, "firefly reporter light, replicate 2": 5.51e5, "Renilla control light, replicate 1": 1.75e6, "Renilla control light, replicate 2": 1.65e6}
{"gene": "CG3014", "dsRNA": "DRSC15458", "firefly reporter light, replicate 1": 79475, "firefly reporter light, replicate 2": 1.18e5, "Renilla control light, replicate 1": 1.63e6, "Renilla control light, replicate 2": 1.78e6}
{"gene": "meng (meng-po)", "dsRNA": "DRSC02134", "firefly reporter light, replicate 1": 1.53e5, "firefly reporter light, replicate 2": 1.55e5, "Renilla control light, replicate 1": 1.24e6, "Renilla control light, replicate 2": 1.00e6}
{"gene": "meng (meng-po)", "dsRNA": "DRSC28743", "firefly reporter light, replicate 1": 4.60e5, "firefly reporter light, replicate 2": 2.33e5, "Renilla control light, replicate 1": 1.20e6, "Renilla control light, replicate 2": 1.15e6}
{"gene": "Ald1 (Aldolase 1)", "dsRNA": "DRSC14109", "firefly reporter light, replicate 1": 60186, "firefly reporter light, replicate 2": 66401, "Renilla control light, replicate 1": 3.89e5, "Renilla control light, replicate 2": 4.32e5}
{"gene": "Ald1 (Aldolase 1)", "dsRNA": "DRSC25381", "firefly reporter light, replicate 1": 5.95e5, "firefly reporter light, replicate 2": 9.29e5, "Renilla control light, replicate 1": 6.99e5, "Renilla control light, replicate 2": 6.86e5}

2 successive entries from above, for reference:
{"gene": "mldr (mulder)", "dsRNA": "DRSC27990", "firefly reporter light, replicate 1": 6.59e5, "firefly reporter light, replicate 2": 5.51e5, "Renilla control light, replicate 1": 1.75e6, "Renilla control light, replicate 2": 1.65e6}
{"gene": "CG3014", "dsRNA": "DRSC15458", "firefly reporter light, replicate 1": 79475, "firefly reporter light, replicate 2": 1.18e5, "Renilla control light, replicate 1": 1.63e6, "Renilla control light, replicate 2": 1.78e6}
